Results are given in words; binding and its absence hold for the method and conditions named. Some entries that bind do so weakly or less than the wild type.
Assays:
[1] = biological target: Cynomolgus (Cyno)-Nectin-4 expressed on CHO cells (cynomolgus); assay: FACS titration (20-0.01 nM) on CHO cells transfected with Cynomolgus Nectin-4
[2] = biological target: Cynomolgus (Cyno)-Nectin-4 expressed on CHO cells (cynomolgus); assay: FACS titration on CHO cells transfected with Cyno-Nectin-4

Row | binding [1] | binding [2] | Binder
1 | binds | binds | monoclonal antibody hNec4.05 (antibody, IgG1, V domains shown, also called Nectin4.05; Clone 5) VH: QVQLQQSGPELVKPGASVRISCKASGYTFTTYYIHWVKQRPGQGLEWIGWIYPGNVNTKNNEKFKVKATLTADKSSSTAYMQLSSLTSEDSAVYFCARSNPYVMDYWGQGTSVTVSS VL: SIVMTQTPKFLLVSAGDRVTITCKASQSVSNDVAWYQQKPGQSPKLLIYYASNRYTGVPDRFTGSGYGTDFTFTISAVQAEDLAVYFCQQDYSSPYTFGGGTKLEIK
2 | binds | binds | monoclonal antibody hNec4.11 (antibody, V domains shown, also called Nectin4.11; clone 11) VH: QVQLQQSGPELVKPETSVKISCKASGYTFTSYYIHWVKQRPGQGLEWIGWIYPGNVNTKYNERFKGKATLTADKSSNTAHMQLTSLTSEDSAVYFCARSNPYVMDYWGQGTSVTVSS VL: SIVMTQTPKFLLVSAGDRVTITCKASQSVNNDVAWYQQKPGLSPELLMYYASNRFTGVPDRFTGSGYGTDFTFTISSVQAEDLAIYFCQQAYRSPYTFGGGTKLEIQ

Reference: US20210130459A1 (YISSUM RESEARCH DEVELOPMENT COMPANY OF THE HEBREW …, published 2021)
